The text below walks through data of PMC12491506, “Identification of a RAB32-LRMDA-Commander membrane trafficking complex reveals the molecular mechanism of human oculocutaneous albinism type 7” (Nature Communications, 2025).

The target of one experiment is T1, GFP-LRMDA F145D (human).
T1 sequence: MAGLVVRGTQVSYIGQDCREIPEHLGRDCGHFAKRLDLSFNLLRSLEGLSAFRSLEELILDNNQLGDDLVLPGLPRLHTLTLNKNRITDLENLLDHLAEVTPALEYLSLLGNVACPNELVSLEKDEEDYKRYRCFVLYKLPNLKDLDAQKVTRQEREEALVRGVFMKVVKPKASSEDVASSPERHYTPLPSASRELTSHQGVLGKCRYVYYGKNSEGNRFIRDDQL
Put plainly: affinity purification with mass spectrometry; GFP-trap from RPE1-hTERT cells stably transduced with GFP, GFP-LRMDA, GFP-LRMDA F145D or L226G; TMT proteomics (Figs 1E, 4A, 4B).

For a further experiment, the target named is T2, GFP-LRMDA L226G (human).
T2 sequence: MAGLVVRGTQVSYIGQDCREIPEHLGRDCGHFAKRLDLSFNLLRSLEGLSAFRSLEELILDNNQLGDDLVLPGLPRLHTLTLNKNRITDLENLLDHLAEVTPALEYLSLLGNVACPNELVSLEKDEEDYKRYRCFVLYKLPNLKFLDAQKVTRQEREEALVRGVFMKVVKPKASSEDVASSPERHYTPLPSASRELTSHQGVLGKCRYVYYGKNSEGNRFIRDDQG
The description is as above.

The target of experiment [1] is T3, GFP-LRMDA (human).
T3 sequence: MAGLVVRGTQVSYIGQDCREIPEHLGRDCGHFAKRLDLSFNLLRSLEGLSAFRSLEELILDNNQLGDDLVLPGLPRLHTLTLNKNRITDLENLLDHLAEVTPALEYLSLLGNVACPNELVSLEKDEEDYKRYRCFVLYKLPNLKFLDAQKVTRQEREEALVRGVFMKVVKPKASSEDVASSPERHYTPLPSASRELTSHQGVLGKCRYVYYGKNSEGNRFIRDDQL
The description is as above.

Experiment [2] concerns the target T3, GFP-LRMDA (human). Put plainly: affinity purification with mass spectrometry; GFP-trap from MNT1 cells stably transduced with GFP, GFP-LRMDA or GFP-VPS26C; TMT proteomics (Supplementary Fig. 4A, Fig. 6A).

No constants are given. Whether binding was seen depends on the method and setting. Binding seen in cells or lysates may run through a third protein. These calls come from enrichment with a bait or labelling near it, and not all partners need be listed. For some of these results: No binding means not detected with the bait. Sequences can lack the tags named with a protein.

B1: recombinant RAB32 (tag-less) (natural protein, human, UniProt Q13637 1-225, looked up)
chain: MAGGGAGDPGLGAAAAPAPETREHLFKVLVIGELGVGKTSIIKRYVHQLFSQHYRATIGVDFALKVLNWDSRTLVRLQLWDIAGQERFGNMTRVYYKEAVGAFVVFDISRSSTFEAVLKWKSDLDSKVHLPNGSPIPAVLLANKCDQNKDSSQSPSQVDQFCKEHGFAGWFETSAKDNINIEEAARFLVEKILVNHQSFPNEENDVDKIKLDQETLRAENKSQCC
notes: RAB32, human, full-length; also called purified RAB32; GST-TEV-RAB32 after TEV cleavage; source: Sf21 insect cells (baculovirus), purified (Glutathione Sepharose 4b, TEV cleavage); not shown: GST, N-terminal, cleaved
B1: the binding result was “no binding” with GFP-LRMDA F145D (human), “binds” in the experiment with GFP-LRMDA L226G (human), “binds” in the experiment with GFP-LRMDA (human) [1] and “binds” in the experiment with GFP-LRMDA (human) [2].
